Test results reported in PMC3983681.
Results are given in words; binding and its absence hold for the method and conditions named. For some assays here: In cells and extracts the contact can be indirect. Some results given as binding are weak or reduced against the parent protein; the word gives no strength. Tags and fused reporters may be left off the sequences shown.

T1: Hmo1 (yeast two-hybrid fusion) (S. cerevisiae) (UniProt Q03973)
T1 sequence: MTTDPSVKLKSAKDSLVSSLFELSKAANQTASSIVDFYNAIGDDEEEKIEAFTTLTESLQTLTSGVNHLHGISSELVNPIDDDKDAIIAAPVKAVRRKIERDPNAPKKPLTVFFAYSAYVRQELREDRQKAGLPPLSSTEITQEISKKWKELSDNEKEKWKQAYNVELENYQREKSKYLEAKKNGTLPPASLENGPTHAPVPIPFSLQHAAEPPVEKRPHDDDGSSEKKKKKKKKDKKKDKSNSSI

T2: GST-Hmo1 (S. cerevisiae) (UniProt Q03973)
T2 sequence: T1 sequence

B1: Elg1 (yeast two-hybrid fusion) (protein, UniProt Q12050 1-791)
chain: MKRHVSLSDILTGNKRKVRRQDALQITIDDENDTESGTFDARTAKHDDSSVIFLNHSVVKPIEAVSTNHKSAKEFLMTKRTKEKCDDDDDDLIVISDKSPKSETNCSKIALSQEHEDDISIISTSRIKSSLLNERASKIKNFLKHETTDTFKRLNSISKLNEIEPPLPLHQSIFPVGDKELSDRSVDIPLPFRTIPPLNHNFLPSDYESLKDKNSASCIPVRYQAPVLLGTNIKRNTTLTWPQLFKPVTLKQVLIEPKLKLRIKNWIETSFHTLEKPTLRNRLLNRINPNKQQGSGDELANFIVPDLEEDENLRPDFYRNGEANSSLSEFVPLMILHGNSIGKKTLIQTIMREIAGDDNSYQIYEVNSNMNRSKKDLLDILLDFTTTHYVKDSSKRKSDYGLVLFNDVDVLFKEHDRGYWAMISKLCEFSRRPLVLTCKDLSLVPSELIALASEQNSLFHTKKISTSTVYAFLTKYLKSLEIEVCDDWLRDVVKQNNADIRKCLMHLQFWCVDTEADLISSKNRLPVLTSTLGSSVKDISQLTDLLSINDVIGQATLNRSMVRQEIDSTTMTPEKVNTFQDQNLDDEMKLKFDYVIDYKLHLNDPNRQPLLPFELNIYQHIQEQLEARYSYVREANHRLDNEYLVNRFKKMTESTLNFLASRIPKYDHLQSARRTRNSKKISDILNQFKGIYNDETLNENAEIDLLSATTQQIKAEINPFVFEIAKSDANVKNENKQIFELHSENVSERRYKDLVYQLSQEGVLKNVWFNADPSIVVRKWEHLHSGFSKNK
B2: Elg1-FLAG (protein, UniProt Q12050 1-791)
chain: B1 chain

Assays:
[1] = target: T1, Hmo1 (yeast two-hybrid fusion) (S. cerevisiae); assay: two-hybrid; yeast two-hybrid (candidate approach and screens; screening performed by Hybrigenics Services)
[2] = target: T2, GST-Hmo1 (S. cerevisiae); assay: pull-down; about 5 ug GST-Hmo1 immobilized on glutathione-Sepharose 4B beads, incubated with about 2.5 mg total lysate of Elg1-FLAG yeast cells (G1 arrest, release with or without 0.033% MMS for 20 min) for 2 h at 4°C in Tris pH 7.5, 150 mM NaCl, 1 mM DTT, 1 mM EDTA, 10% glycerol, 0.1% Triton X-100, with or without 0.5 mg/ml ethidium bromide; washes up to 500 mM NaCl; anti-FLAG immunoblot; only the target purified

| Binder | binding [1] | binding [2] |
| --- | --- | --- |
| B1 | binds |  |
| B2 |  | binds |
